Laboratory results as given in publication PMC13448217.
No constants are given. Whether binding was seen depends on the method and setting. Binding seen in cells or lysates may run through a third protein. A yes stands for co-enrichment or nearness to the bait. Other partners may have been found.

Protein sequences, listed by entry. Tags and fused reporters are not part of them. Lines headed by an entry give the natural chain unless they say otherwise; changes in a name come on top.
UniProt Q8IE50: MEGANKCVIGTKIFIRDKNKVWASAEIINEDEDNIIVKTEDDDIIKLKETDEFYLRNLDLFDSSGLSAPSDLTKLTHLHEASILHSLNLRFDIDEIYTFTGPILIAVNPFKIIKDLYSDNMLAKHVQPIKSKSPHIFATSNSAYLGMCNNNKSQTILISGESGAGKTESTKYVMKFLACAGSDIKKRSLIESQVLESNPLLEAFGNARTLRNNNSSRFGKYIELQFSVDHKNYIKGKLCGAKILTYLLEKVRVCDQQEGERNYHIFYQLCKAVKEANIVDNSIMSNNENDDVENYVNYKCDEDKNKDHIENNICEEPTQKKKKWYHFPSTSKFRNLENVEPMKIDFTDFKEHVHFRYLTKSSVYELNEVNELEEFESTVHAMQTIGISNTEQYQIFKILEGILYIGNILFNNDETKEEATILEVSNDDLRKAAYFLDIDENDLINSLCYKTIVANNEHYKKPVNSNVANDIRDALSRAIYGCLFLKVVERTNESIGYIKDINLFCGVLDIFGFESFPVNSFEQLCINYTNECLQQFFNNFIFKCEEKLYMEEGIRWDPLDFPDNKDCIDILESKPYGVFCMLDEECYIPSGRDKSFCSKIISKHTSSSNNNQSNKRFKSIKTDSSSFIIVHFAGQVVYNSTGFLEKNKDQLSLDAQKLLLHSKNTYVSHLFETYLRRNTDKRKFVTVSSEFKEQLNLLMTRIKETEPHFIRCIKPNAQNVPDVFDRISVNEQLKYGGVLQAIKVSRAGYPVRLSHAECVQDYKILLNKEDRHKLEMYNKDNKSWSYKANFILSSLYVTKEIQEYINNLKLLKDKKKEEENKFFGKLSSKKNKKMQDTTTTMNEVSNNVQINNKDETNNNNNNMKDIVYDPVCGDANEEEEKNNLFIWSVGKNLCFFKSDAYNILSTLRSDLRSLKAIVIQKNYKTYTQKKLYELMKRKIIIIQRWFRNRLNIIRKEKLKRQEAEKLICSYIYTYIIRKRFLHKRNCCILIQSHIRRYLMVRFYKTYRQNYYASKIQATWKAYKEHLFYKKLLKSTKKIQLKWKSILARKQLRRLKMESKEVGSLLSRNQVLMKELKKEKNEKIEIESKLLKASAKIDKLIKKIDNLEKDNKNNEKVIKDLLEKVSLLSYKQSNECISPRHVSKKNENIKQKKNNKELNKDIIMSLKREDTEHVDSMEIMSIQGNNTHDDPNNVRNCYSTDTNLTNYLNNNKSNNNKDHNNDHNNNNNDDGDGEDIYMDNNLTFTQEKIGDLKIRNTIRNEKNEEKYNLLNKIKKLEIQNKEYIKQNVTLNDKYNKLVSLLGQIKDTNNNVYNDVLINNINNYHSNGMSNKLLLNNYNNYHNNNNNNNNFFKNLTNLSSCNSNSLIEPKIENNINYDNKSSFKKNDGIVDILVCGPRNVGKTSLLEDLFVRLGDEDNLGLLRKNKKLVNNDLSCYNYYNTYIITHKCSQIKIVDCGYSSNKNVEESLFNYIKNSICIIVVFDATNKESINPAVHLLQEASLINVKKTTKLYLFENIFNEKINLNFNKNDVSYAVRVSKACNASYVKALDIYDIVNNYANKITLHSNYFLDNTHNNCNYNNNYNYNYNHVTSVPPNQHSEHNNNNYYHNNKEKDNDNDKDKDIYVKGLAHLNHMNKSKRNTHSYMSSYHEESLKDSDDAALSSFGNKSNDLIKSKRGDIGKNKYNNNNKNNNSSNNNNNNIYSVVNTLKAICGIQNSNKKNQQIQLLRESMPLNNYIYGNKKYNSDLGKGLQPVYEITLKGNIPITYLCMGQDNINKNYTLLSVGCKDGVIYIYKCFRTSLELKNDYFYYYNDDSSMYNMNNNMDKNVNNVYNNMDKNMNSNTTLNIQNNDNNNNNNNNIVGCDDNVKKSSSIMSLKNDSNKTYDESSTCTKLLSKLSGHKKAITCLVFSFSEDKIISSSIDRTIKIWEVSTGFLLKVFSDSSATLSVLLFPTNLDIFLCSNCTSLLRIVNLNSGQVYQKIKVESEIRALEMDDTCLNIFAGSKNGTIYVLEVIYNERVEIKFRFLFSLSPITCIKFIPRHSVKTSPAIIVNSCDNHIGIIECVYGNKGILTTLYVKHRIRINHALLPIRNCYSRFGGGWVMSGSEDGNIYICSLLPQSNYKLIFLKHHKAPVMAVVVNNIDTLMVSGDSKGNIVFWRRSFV
UniProt C6KT34: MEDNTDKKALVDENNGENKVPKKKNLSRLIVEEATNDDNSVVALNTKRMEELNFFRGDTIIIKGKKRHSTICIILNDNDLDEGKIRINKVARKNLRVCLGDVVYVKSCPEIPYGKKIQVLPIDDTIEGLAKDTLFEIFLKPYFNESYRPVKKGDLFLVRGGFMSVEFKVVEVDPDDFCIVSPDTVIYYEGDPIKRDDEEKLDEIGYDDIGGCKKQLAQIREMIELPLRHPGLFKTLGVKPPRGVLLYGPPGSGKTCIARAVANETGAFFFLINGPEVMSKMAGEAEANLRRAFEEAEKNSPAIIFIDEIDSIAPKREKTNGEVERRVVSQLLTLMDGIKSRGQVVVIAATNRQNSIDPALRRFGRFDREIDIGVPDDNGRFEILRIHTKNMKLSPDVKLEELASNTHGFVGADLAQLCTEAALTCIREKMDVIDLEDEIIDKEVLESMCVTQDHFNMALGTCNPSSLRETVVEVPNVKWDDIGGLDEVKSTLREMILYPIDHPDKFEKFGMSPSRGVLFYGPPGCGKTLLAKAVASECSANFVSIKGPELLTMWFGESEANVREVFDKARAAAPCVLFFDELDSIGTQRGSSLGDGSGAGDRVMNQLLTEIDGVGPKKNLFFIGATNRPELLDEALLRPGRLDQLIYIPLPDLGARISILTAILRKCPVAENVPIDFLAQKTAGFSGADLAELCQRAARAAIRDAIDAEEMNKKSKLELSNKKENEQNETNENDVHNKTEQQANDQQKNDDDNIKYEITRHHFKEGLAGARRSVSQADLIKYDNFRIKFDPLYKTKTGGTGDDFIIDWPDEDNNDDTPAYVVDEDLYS

B1: SEY1 (protein, UniProt Q8ILT5 1-937)
chain: MEKGVEKTQIIDYDGNVIEDLKEWMIDNKLNDLGFSYNVIAVLGSQSSGKSTLLNNLFKTSFDVMNTKQGHSQTTKGLWLSYDKFDDETNNSSSFFKLKKKNKPTLILDVEGTDSKERGDNRLTFEHRSALFCLALADCVIVNLWYHSLGNFTASNYGLLKTVMEVNLELFQQEKNSPKTILLFTVRDWFEEFAPIEVVRNKILDEYINKIWKEMKKPKEAEKLNINNFFIIEVVGLSHGIIKKEDFLKDVNNLRDKWINNLRPSKYSRNIPSDGFAQYCNNIWNTIVKQSQLDIPSQKEMLSTFRCQEIKNNVINNINKEIKEKSIESHNKVIENFKEWAEKNIIQKCLDDYFKDASRYKENICLRTSQELLDYLFTQLQAIVDNNLQYIQRTLCTKFFNELSNMYKICTIEKNTFSFSRDSNLKTVKDNNKNTSHEDIKRDLLNNNQDKCVHLWSNFLYNADKLEYFTFCNFYENYEKSNIEIKTNMKNDDNLKNDDNLKNDAHNNITTHQFNYKPTLSVLSTSIYKDSNRIRNIQCGILLNKTRQTIKNSFKNMDTYLLTTKNTEEYWNNTVQLVLKLQDNINTHLTKCFINLKGTNHNNLNIYNDDMMYNNDDMVFNNNDDDDNNNNNNNNNYYYYNKNDDANLSKDENYNNKFSFSLTNEKGIFQNINNNNEGSDEICYTNALKKIDLIKNKQVYKSTINEDINNKLQNKKYIHELKNYYLDEIMDVLKNKLDEISENLATIIIQRFESVFNYDEYEQPRQWRDISMAELKKIFLKSKNYAFLIIDILQKNIKVELIDDYLPNNFIKDEIIEKGKIKAKRRIQEICRDAQYIQETGSKMSLKNVPVVFWIILLLFGWNEILFFIRMFFKLNVILPLFFAAAFIVSTFVYNGNTQALSYINKIIFYMAKNSYNFFKHIQAISNPPPKNVQKQE
B2: PfRab18 (protein, UniProt Q8T324 1-201)
chain: MKNKNKYDYLLKLLLVGDSSVGKSSILCRYSDNQFEEKVLSTIGIDFKVKYLKIDNKTIKVGIWDTAGQERFRTLTSAYYRNAHAIILVYDCTVRESFENLDVWINEIDKYSTNKNAIKMLVANKIDKPNHEVTKDEGKNFAFENNMLFCETSAKNDINITYCFEELIQQILNNPSLLELSIVTKNLKLGKKEESRSNCAC

Molecular target: endogenous PfMyoF (P. falciparum (endogenous in 3D7 parasites)) (UniProt Q8IE50)
Test: affinity purification with mass spectrometry; co-immunoprecipitation from late trophozoite lysate with polyclonal α-PfMyoF and Protein A beads, pre-immune serum as control; 50 mM Tris pH 7.4, 150 mM NaCl, 5 mM MgCl2, 1% NP-40, 5 mM ATP, 4 °C; hits enriched ≥5-fold by iBAQ; three replicates

binding | Molecule
binds | PF3D7_0619400 (from UniProt C6KT34)
binds | B1
binds | B2
